# Laboratory results published in paper PMC12327844.
# Results are given in words; binding and its absence hold for the method and conditions named. Some binding calls cover weakened binding; strength is not graded here. Tags and fused reporters may be left off the sequences shown.
# T1: BsGpsB (yeast two-hybrid fusion) (Bacillus subtilis NCIB 3610) (UniProt P0CI74)
# T1 sequence: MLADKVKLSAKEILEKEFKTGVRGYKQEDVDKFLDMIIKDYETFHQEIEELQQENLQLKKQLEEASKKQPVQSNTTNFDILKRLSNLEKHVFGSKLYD
# T2: GST-tagged BsFlhG (Bacillus subtilis NCIB 3610) (UniProt P40742)
# T2 sequence: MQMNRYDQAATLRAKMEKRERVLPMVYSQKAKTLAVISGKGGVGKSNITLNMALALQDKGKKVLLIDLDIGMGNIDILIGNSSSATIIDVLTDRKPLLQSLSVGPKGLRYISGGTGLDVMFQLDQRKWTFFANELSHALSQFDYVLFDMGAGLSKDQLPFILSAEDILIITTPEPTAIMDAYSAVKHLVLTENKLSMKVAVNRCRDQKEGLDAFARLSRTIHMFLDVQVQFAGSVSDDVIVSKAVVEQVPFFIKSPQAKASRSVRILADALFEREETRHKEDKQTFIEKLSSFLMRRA
# B1: BsFlhG (yeast two-hybrid fusion) (protein, UniProt P40742 1-298)
# chain: T2 sequence
# B2: BsGpsB (recombinant prey) (protein, UniProt P0CI74 1-98)
# chain: T1 sequence
# B3: BsMinD (yeast two-hybrid fusion) (protein, UniProt Q01464 1-268)
# chain: MGEAIVITSGKGGVGKTTTSANLGTALAILGKRVCLVDTDIGLRNLDVVMGLENRIIYDLVDVVEGRCKMHQALVKDKRFDDLLYLMPAAQTSDKTAVAPEQIKNMVQELKQEFDYVIIDCPAGIEQGYKNAVSGADKAIVVTTPEISAVRDADRIIGLLEQEENIEPPRLVVNRIRNHLMKNGDTMDIDEIVQHLSIDLLGIVADDDEVIKASNHGEPIAMDPKNRASIAYRNIARRILGESVPLQVLEEQNKGMMAKIKSFFGVRS
# Legend:
# [1] = biological target: T1, BsGpsB (yeast two-hybrid fusion) (Bacillus subtilis NCIB 3610); assay: two-hybrid; Gal4 DNA-binding domain bait and Gal4 activation domain prey in yeast PJ69-4A; growth on SC-His-Leu-Trp (HIS3 reporter), 3 days at 30°C
# [2] = biological target: T2, GST-tagged BsFlhG (Bacillus subtilis NCIB 3610); assay: pull-down; GST pulldown, nucleotide not stated for these panels (Figure S6, Figure 3b); GST-tagged bait on glutathione agarose beads; SEC buffer, room temperature; Coomassie-stained SDS-PAGE; both purified
Binder,binding [1],binding [2]
B1,binds,
B2,,binds
B3,no binding,
